Reference: the supplement of paper PMC6078165

Test system: MDAMB231
Assay: relative JC-1 red fluorescence (viability) vs pre-drug, coculture with fibroblast (fraction); higher = more viable cancer cells
Protocol: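 JC-1 labelled TNBC cells cocultured 1:1 (1,500 cells each) with CellTrace Violet stained primary or stromal fibroblasts in 384-well plates in FluoroBrite medium, treated with one of 42 anticancer drugs at 0.1, 1, 10 or 100 uM. JC-1 red fluorescence (mitochondrial integrity in cancer cells only) was read by plate reader every 8 h for 72 h. Values are normalised to each well's pre-drug value. The stock of one drug was tenfold lower, so its dose labels may be too high.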

O=C(O)C(=O)O.[NH-][C@@H]1CCCC[C@H]1[NH-].[Pt+2] [Oxaliplatin]
relative JC-1 red fluorescence
Details | 8 h | 16 h | 24 h | 32 h | 40 h | 48 h | 56 h | 64 h | 72 h
0.1 µM, coculture fibroblast: C12385 | 0.79 | 0.7254 | 0.805 | 0.684 | 0.638 | 0.64 | 0.612 | 0.648 | 0.644
0.1 µM, coculture fibroblast: H6013 | 0.897 | 0.861 | 0.844 | 0.834 | 0.811 | 0.828 | 0.811 | 0.804 | 0.761
0.1 µM, coculture fibroblast: H6019 | 0.7713 | 0.6925 | 0.739 | 0.673 | 0.633 | 0.644 | 0.595 | 0.612 | 0.583
0.1 µM, coculture fibroblast: H6076 | 0.835 | 0.752 | 0.701 | 0.675 | 0.664 | 0.635 | 0.633 | 0.634 | 0.639
0.1 µM, coculture fibroblast: H6231 | 0.893 | 0.824 | 0.753 | 0.705 | 0.6608 | 0.631 | 0.596 | 0.587 | 0.572
0.1 µM, coculture fibroblast: HADF | 0.8675 | 0.83 | 0.796 | 0.76089 | 0.72799 | 0.725 | 0.706 | 0.7035 | 0.67
0.1 µM, coculture fibroblast: HCFa | 0.908 | 0.875 | 0.848 | 0.8277 | 0.7912 | 0.746 | 0.727 | 0.6986 | 0.643
0.1 µM, coculture fibroblast: HCPF | 0.853 | 0.784 | 0.74 | 0.719 | 0.673 | 0.638 | 0.609 | 0.589 | 0.57
0.1 µM, coculture fibroblast: HHSteC | 0.891 | 0.852 | 0.806 | 0.765 | 0.7328 | 0.717 | 0.66884 | 0.663 | 0.626
0.1 µM, coculture fibroblast: HMF | 0.8279 | 0.748 | 0.7058 | 0.6674 | 0.633 | 0.6045 | 0.589 | 0.578 | 0.577
0.1 µM, coculture fibroblast: HPFa | 0.915 | 0.8861 | 0.835 | 0.787 | 0.761 | 0.735 | 0.6793 | 0.649 | 0.595
0.1 µM, coculture fibroblast: HUF | 0.803 | 0.697 | 0.7277 | 0.591 | 0.543 | 0.534 | 0.496 | 0.511 | 0.504
0.1 µM, coculture fibroblast: Hs5 | 0.8201 | 0.772 | 0.7385 | 0.705 | 0.684 | 0.631 | 0.6098 | 0.595 | 0.575
0.1 µM, coculture fibroblast: Hs27A | 0.864 | 0.8286 | 0.792 | 0.769 | 0.729 | 0.707 | 0.69 | 0.674 | 0.625
0.1 µM, coculture fibroblast: Hs343T | 0.811 | 0.732 | 0.667 | 0.638 | 0.6 | 0.559 | 0.538 | 0.523 | 0.513
0.1 µM, coculture fibroblast: WS1 | 0.7581 | 0.6822 | 0.71 | 0.629 | 0.587 | 0.587 | 0.557 | 0.566 | 0.558
1 µM, coculture fibroblast: C12385 | 0.744 | 0.7066 | 0.597 | 0.579 | 0.507 | 0.474 | 0.431 | 0.421 | 0.397
1 µM, coculture fibroblast: H6013 | 0.884 | 0.8067 | 0.7687 | 0.73 | 0.681 | 0.6354 | 0.616 | 0.579 | 0.5405
1 µM, coculture fibroblast: H6019 | 0.768 | 0.679 | 0.632 | 0.623 | 0.581 | 0.565 | 0.525 | 0.509 | 0.474
1 µM, coculture fibroblast: H6076 | 0.896 | 0.8 | 0.761 | 0.734 | 0.703 | 0.669 | 0.641 | 0.624 | 0.617
1 µM, coculture fibroblast: H6231 | 0.859 | 0.918 | 0.879 | 0.82 | 0.787 | 0.762 | 0.753 | 0.737 | 0.727
1 µM, coculture fibroblast: HADF | 0.8901 | 0.817 | 0.772 | 0.721 | 0.686 | 0.634 | 0.613 | 0.589 | 0.533
1 µM, coculture fibroblast: HCFa | 0.895 | 0.83116 | 0.794 | 0.7586 | 0.7227 | 0.6784 | 0.6454 | 0.615 | 0.56
1 µM, coculture fibroblast: HCPF | 0.916 | 0.786 | 0.684 | 0.627 | 0.5632 | 0.5098 | 0.458 | 0.435 | 0.41
1 µM, coculture fibroblast: HHSteC | 0.928 | 0.874 | 0.817 | 0.772 | 0.72 | 0.678 | 0.63 | 0.608 | 0.56235
1 µM, coculture fibroblast: HMF | 0.862 | 0.741 | 0.663 | 0.617 | 0.564 | 0.519 | 0.479 | 0.457 | 0.434
1 µM, coculture fibroblast: HPFa | 0.9302 | 0.87619 | 0.7974 | 0.7416 | 0.693 | 0.65 | 0.591 | 0.5537 | 0.4965
1 µM, coculture fibroblast: HUF | 0.862 | 0.728 | 0.788 | 0.665 | 0.615 | 0.598 | 0.546 | 0.551 | 0.538
1 µM, coculture fibroblast: Hs5 | 0.926 | 0.824 | 0.755 | 0.703 | 0.654 | 0.597 | 0.555 | 0.523 | 0.499
1 µM, coculture fibroblast: Hs27A | 0.8893 | 0.84054 | 0.778 | 0.756 | 0.7 | 0.623 | 0.634 | 0.604 | 0.548
1 µM, coculture fibroblast: Hs343T | 0.903 | 0.791 | 0.709 | 0.678 | 0.625 | 0.584 | 0.541 | 0.519 | 0.497
1 µM, coculture fibroblast: WS1 | 0.741 | 0.674 | 0.553 | 0.54434 | 0.49 | 0.452 | 0.3966 | 0.3853 | 0.363

The reference is the same well before dosing, and untreated signal decays as well.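 Fibroblast labels name human fibroblasts: mostly primary ones from tissues such as uterus (C12385, HUF), lung (H6013), bone (Hs27A), adrenal (HADF) and skin (WS1), plus mammary HMF and breast cancer-associated Hs343T. The cancer cells are basal-like or mesenchymal-like triple-negative breast cancer lines. The paper calls a changed response a hit when it shifts by more than 3x the replicate standard deviation. The tissue of the other fibroblasts is not given here.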
